Reference: PubChem BioAssay AID1259308 (NCATS, 2017)
This is an unselected part of about 59,000 deposited reagents. Over the whole deposit, about 1,510 (2.6%) got an active call. 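Calls use total luciferase alone and ignore viability, so some active siRNAs may act by altering cell number.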 Unmarked entries are inactive.

- Aim: 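Knock-downs that increase output of a recombinant reporter protein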 (primary screen)
- Cells: human HEK293 embryonic kidney cells stably expressing firefly luciferase (HEK-CMV-Luc2-Hygro)
- Knock-down reagent: single siRNA against human genes, 0.8 pmol siRNA per well
- Time to read-out: 72 h
- Measured: 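Reporter luminescence and viable-cell signal on separate replicate plates, given as percent of non-targeting control and median/MAD z-scores, plus per-cell luciferase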
- Direction: total luciferase, z-score and total luciferase, % of control: higher = more reporter protein produced; luciferase per cell, z-score: higher = more reporter output per viable cell; viable cells, % of control: higher = more viable cells
- Call rule: 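Active when the median/MAD z-score for overall luciferase is greater than 3; a gene was taken forward for validation with new siRNAs if at least two of its three siRNAs passed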
- Calls: active = raised luciferase; inactive = no rise

Target gene | PubChem SID | total luciferase, z-score | total luciferase, % of control | luciferase per cell, z-score | viable cells, % of control
DDAH1 (dimethylarginine dimethylaminohydrolase 1) | SID160730864 | -0.495 | 72 | -0.406 | 89.6
DDAH1 (dimethylarginine dimethylaminohydrolase 1) | SID160736596 | -0.0445 | 81 | -0.0117 | 90.8
DDAH1 (dimethylarginine dimethylaminohydrolase 1) | SID160736597 | 0.0615 | 83.1 | -0.208 | 98.1
SAMD9 (sterile alpha motif domain containing 9) | SID160742207 | -0.00646 | 81.8 | -0.123 | 94.4
SAMD9 (sterile alpha motif domain containing 9) | SID160742208 | -1.22 | 57.6 | -1.24 | 89.3
SAMD9 (sterile alpha motif domain containing 9) | SID160742209 | -0.447 | 73 | -0.84 | 102
ALG1L6P (ALG1 like 6, pseudogene) | SID160725085 | -1.23 | 57.4 | -1.02 | 83.9
ALG1L6P (ALG1 like 6, pseudogene) | SID160764317 | -1.49 | 52.3 | -1.06 | 77.3
ALG1L6P (ALG1 like 6, pseudogene) | SID160764318 | -1.5 | 52 | -0.32 | 63.3
DNAJC2 (DnaJ heat shock protein family (Hsp40) member C2) | SID160730952 | -2.34 | 35.3 | -2.24 | 71.1
DNAJC2 (DnaJ heat shock protein family (Hsp40) member C2) | SID160738235 | -0.298 | 76 | -0.499 | 96.8
DNAJC2 (DnaJ heat shock protein family (Hsp40) member C2) | SID160738236 | -0.0326 | 81.2 | -0.152 | 94.5
ATP6V1A (ATPase H+ transporting V1 subunit A) | SID160722039 | -1.11 | 59.9 | -1.07 | 88.7
ATP6V1A (ATPase H+ transporting V1 subunit A) | SID160722049 | -0.296 | 76 | -0.82 | 105
ATP6V1A (ATPase H+ transporting V1 subunit A) | SID160722060 | -0.173 | 78.4 | -0.736 | 106
RPL21 (ribosomal protein L21) | SID160716061 | -2.93 | 23.7 | -2.34 | 49
RPL21 (ribosomal protein L21) | SID160716062 | -2.77 | 26.7 | -0.402 | 33.2
RPL21 (ribosomal protein L21) | SID160716063 | -2.91 | 24 | -2.83 | 56.4
ALDH1L2 (aldehyde dehydrogenase 1 family member L2) | SID160730669 | 0.408 | 90 | -0.446 | 113
ALDH1L2 (aldehyde dehydrogenase 1 family member L2) | SID160759780 | 0.641 | 94.6 | 0.676 | 88.5
ALDH1L2 (aldehyde dehydrogenase 1 family member L2) | SID160759781 | 1.85 | 119 | 1.14 | 98.1
VGLL2 (vestigial like family member 2) | SID160730883 | -0.25 | 76.9 | 0.0431 | 85
VGLL2 (vestigial like family member 2) | SID160761937 | 1.86 | 119 | 1.35 | 93
VGLL2 (vestigial like family member 2) | SID160761939 | -0.36 | 74.7 | -0.16 | 87.1
LINC00471 (long independently transcribed non-coding RNA 471) | SID160759109 | -1.4 | 54.1 | -1.51 | 89.9
LINC00471 (long independently transcribed non-coding RNA 471) | SID160759110 | 1.01 | 102 | 1.29 | 81
LINC00471 (long independently transcribed non-coding RNA 471) | SID160759111 | -0.385 | 74.2 | -0.668 | 98.9
FZD10 (frizzled class receptor 10) | SID160730198 | 0.0921 | 83.7 | 0.348 | 85.4
FZD10 (frizzled class receptor 10) | SID160730199 | -0.0372 | 81.1 | -0.303 | 98.2
FZD10 (frizzled class receptor 10) | SID160730200 | -2.81 | 26 | -2.17 | 51.6
MYO1E (myosin IE) | SID160774805 | 1.35 | 109 | 2.05 | 70.8
MYO1E (myosin IE) | SID160774815 | 0.299 | 87.8 | 0.0971 | 95.7
MYO1E (myosin IE) | SID160774824 | 0.227 | 86.4 | 0.255 | 90.3
CAPS2 (calcyphosine 2) | SID160752620 | -0.489 | 72.2 | 0.164 | 77.2
CAPS2 (calcyphosine 2) | SID160752621 | 0.205 | 86 | -0.147 | 99.9
CAPS2 (calcyphosine 2) | SID160752622 | 0.246 | 86.8 | -0.0542 | 98.4
CMYA5 (cardiomyopathy associated 5) | SID160761063 | -0.178 | 78.3 | -0.372 | 96.5
CMYA5 (cardiomyopathy associated 5) | SID160761064 | -0.561 | 70.7 | -0.433 | 88.6
CMYA5 (cardiomyopathy associated 5) | SID160761065 | 0.631 | 94.4 | 0.922 | 82.8

Just “total luciferase, % of control” (4 entries from above):
VGLL2 (vestigial like family member 2) [SID160730883]	76.9
VGLL2 (vestigial like family member 2) [SID160761937]	119
VGLL2 (vestigial like family member 2) [SID160761939]	74.7
LINC00471 (long independently transcribed non-coding RNA 471) [SID160759109]	54.1
